According to PMC11120602:
Results are given in words; binding and its absence hold for the method and conditions named. Binding seen in cells or lysates may run through a third protein. Some entries that bind do so weakly or less than the wild type. Sequences can lack the tags named with a protein.

By UniProt entry, the sequences of proteins in these tests, tags left out.
UniProt O14744: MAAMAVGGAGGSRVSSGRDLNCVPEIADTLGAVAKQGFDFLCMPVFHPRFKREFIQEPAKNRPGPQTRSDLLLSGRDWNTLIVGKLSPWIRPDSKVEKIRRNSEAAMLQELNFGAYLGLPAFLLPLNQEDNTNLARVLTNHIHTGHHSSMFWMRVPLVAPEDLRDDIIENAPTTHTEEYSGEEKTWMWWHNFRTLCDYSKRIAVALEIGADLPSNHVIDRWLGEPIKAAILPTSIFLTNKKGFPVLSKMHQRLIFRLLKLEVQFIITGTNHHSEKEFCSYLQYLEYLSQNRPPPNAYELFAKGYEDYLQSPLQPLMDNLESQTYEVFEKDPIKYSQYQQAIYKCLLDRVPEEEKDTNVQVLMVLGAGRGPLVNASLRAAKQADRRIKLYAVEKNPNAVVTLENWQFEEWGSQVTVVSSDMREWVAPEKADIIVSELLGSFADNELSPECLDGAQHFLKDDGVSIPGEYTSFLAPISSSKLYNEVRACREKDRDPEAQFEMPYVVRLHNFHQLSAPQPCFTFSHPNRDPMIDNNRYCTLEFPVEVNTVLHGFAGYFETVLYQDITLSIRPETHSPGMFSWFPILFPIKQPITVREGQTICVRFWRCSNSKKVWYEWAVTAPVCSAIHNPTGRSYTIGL

Assays:
[1] = target: PRMT5-Flag (protein arginine N-methyltransferase 5) (human) (UniProt O14744); experiment: co-IP; HEK293FT cells co-transfected with PRMT5-Flag and/or RORα-HA; hypotonic gentle lysis buffer (10 mM Tris-HCl pH 7.5, 2 mM EDTA, 0.5% Triton X-100), brought to 150 mM NaCl; anti-Flag M2 affinity gel; Western blot
[2] = target: GST-PRMT5 fusion protein (human) (UniProt O14744); experiment: pull-down; GST-PRMT5 on glutathione agarose beads incubated with RORα-expressing HEK293FT cell lysate at 4 °C for 4 h; washed three times with RIPA buffer; Western blot; only the target purified

Binder | binding [1] | binding [2]
RORα-HA (retinoic acid receptor-related orphan receptor alpha, isoform RORα1) (protein, UniProt P35398-2 1-523) MESAPAAPDPAASEPGSSGADAAAGSRETPLNQESARKSEPPAPVRRQSYSSTSRGISVTKKTHTSQIEIIPCKICGDKSSGIHYGVITCEGCKGFFRRSQQSNATYSCPRQKNCLIDRTSRNRCQHCRLQKCLAVGMSRDAVKFGRMSKKQRDSLYAEVQKHRMQQQQRDHQQQPGEAEPLTPTYNISANGLTELHDDLSNYIDGHTPEGSKADSAVSSFYLDIQPSPDQSGLDINGIKPEPICDYTPASGFFPYCSFTNGETSPTVSMAELEHLAQNISKSHLETCQYLREELQQITWQTFLQEEIENYQNKQREVMWQLCAIKITEAIQYVVEFAKRIDGFMELCQNDQIVLLKAGSLEVVFIRMCRAFDSQNNTVYFDGKYASPDVFKSLGCEDFISFVFEFGKSLCSMHLTEDEIALFSAFVLMSADRSWLQEKVKIEKLQQKIQLALQHVLQKNHREDGILTKLICKVSTLRALCGRHTEKLMAFKAIYPDIVRLHFPPLYKELFTSEFEPAMQIDG | binds | –
RORα1-Flag (protein, UniProt P35398-2 1-523) MESAPAAPDPAASEPGSSGADAAAGSRETPLNQESARKSEPPAPVRRQSYSSTSRGISVTKKTHTSQIEIIPCKICGDKSSGIHYGVITCEGCKGFFRRSQQSNATYSCPRQKNCLIDRTSRNRCQHCRLQKCLAVGMSRDAVKFGRMSKKQRDSLYAEVQKHRMQQQQRDHQQQPGEAEPLTPTYNISANGLTELHDDLSNYIDGHTPEGSKADSAVSSFYLDIQPSPDQSGLDINGIKPEPICDYTPASGFFPYCSFTNGETSPTVSMAELEHLAQNISKSHLETCQYLREELQQITWQTFLQEEIENYQNKQREVMWQLCAIKITEAIQYVVEFAKRIDGFMELCQNDQIVLLKAGSLEVVFIRMCRAFDSQNNTVYFDGKYASPDVFKSLGCEDFISFVFEFGKSLCSMHLTEDEIALFSAFVLMSADRSWLQEKVKIEKLQQKIQLALQHVLQKNHREDGILTKLICKVSTLRALCGRHTEKLMAFKAIYPDIVRLHFPPLYKELFTSEFEPAMQIDG | – | binds
